Assay results from patent publication US20090099177A1, “PYRIDYL COMPOUNDS” (priority 2006, published 2009).
Counter-ions that a name gives are not always drawn. Some results were stated once for a whole list of compounds, not compound by compound.

Each compound was assayed against T1, human prostanoid EP1 receptor (Homo sapiens, UniProt P34995) (assay: Binding assay for the human prostanoid EP1 receptor (competition with [3H]-PGE2)). Conditions: [3H]-PGE2 competition, human EP1, CHO-K1 membranes; averages of a number of experiments.
T1 construct: expressed in transfected cells; host or cells: CHO-K1 (membrane fraction)
T1 sequence (P34995 1-402): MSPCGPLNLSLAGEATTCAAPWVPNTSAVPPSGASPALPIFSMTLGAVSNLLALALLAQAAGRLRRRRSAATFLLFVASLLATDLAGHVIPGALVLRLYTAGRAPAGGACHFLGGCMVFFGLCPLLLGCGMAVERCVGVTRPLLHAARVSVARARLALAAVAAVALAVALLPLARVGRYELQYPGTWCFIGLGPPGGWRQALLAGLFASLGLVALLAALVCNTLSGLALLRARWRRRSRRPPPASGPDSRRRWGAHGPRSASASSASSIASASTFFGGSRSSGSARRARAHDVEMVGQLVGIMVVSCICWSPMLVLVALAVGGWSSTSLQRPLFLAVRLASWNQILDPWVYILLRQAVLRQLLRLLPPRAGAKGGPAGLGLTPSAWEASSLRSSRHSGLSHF
Method: Competition assay using [^3H]-PGE2.
Compound potencies are determined using a radioligand binding assay. In this assay compound potencies are determined from their ability to compete with tritiated prostaglandin E2 ([^3H]-PGE2) for binding to the human EP1 receptor.
This assay utilises Chinese hamster ovary-K1 (CHO-K1) cells into which a stable vector containing the EP1 cDNA has previously been transfected. Cells are cultured in suitable flasks containing culture medium such as DMEM:F-12 supplemented with 10% v/v foetal calf serum, 2 mM L-glutamine, 0.25 mg/ml geneticin, 10 μg/ml puromycin and 10 μM indomethacin.
Cells are detached from the culture flasks by incubation in calcium and magnesium free phosphate buffered saline containing 1 mM disodium ethylenediaminetetraacetic acid (Na2EDTA) and 10 μM indomethacin for 5 min. The cells are isolated by centrifugation at 250×g for 5mins and suspended in an ice cold buffer such as 50 mM Tris, 1 mM Na2EDTA, 140 mM NaCl, 10 μM indomethacin (pH 7.4). The cells are homogenised using a Polytron tissue disrupter (2×10 s burst at full setting), centrifuged at 48,000×g for 20mins and the pellet containing the membrane fraction is washed (optional) three times by suspension and centrifugation at 48,000×g for 20mins. The final membrane pellet is suspended in an assay buffer such as 10 mM 2-[N-morpholino]ethanesulphonic acid, 1 mM Na2EDTA, 10 mM MgCl2 (pH 6). Aliquots are frozen at −80° C. until required.
For the binding assay the cell membranes, competing compounds and [^3H]-PGE2 (3 nM final assay concentration) are incubated in a final volume of 100 μl for 30 min at 30° C. All reagents are prepared in assay buffer. Reactions are terminated by rapid vacuum filtration over GF/B filters using a Brandell cell harvester. The filters are washed with ice cold assay buffer, dried and the radioactivity retained on the filters is measured by liquid scintillation counting in Packard TopCount scintillation counter.
The data are analysed using non linear curve fitting techniques to determine the concentration of compound producing 50% inhibition of specific binding (IC50).

pIC50 value, ≥ 6:
Clc1ccc(OCc2ccccc2)c(Cc2cccc(-c3nc4cncnc4[nH]3)n2)c1 [Example 33, 8-[6-({5-Chloro-2-[(phenylmethyl)oxy]phenyl}methyl)-2-pyridinyl]-1H-purinehydrochloride]
O=C(Nc1cccc(Cc2cc(Cl)ccc2OCc2ccccc2)n1)C1CCOC1 (stereo not shown) [Example 18, N-[6-({5-Chloro-2-[(phenylmethyl)oxy]phenyl}methyl)-2-pyridinyl]tetrahydro-3-furancarboxamide]
CN1CCN(c2ccc3nc(-c4cccc(Cc5cc(Cl)ccc5OCc5ccccc5)n4)[nH]c3c2)CC1 [Example 26, 2-[6-({5-Chloro-2-[(phenylmethyl)oxy]phenyl}methyl)-2-pyridinyl]-5-(4-methyl-1-piperazinyl)-1H-benzimidazole Hydrochloride]
O=C(Nc1cccc(Cc2cc(Cl)ccc2OCc2ccccc2)n1)c1ccccc1 [Example 3, N-[6-({5-Chloro-2-[(phenylmethyl)oxy]phenyl}methyl)-2-pyridinyl]benzamide]
O=C(Nc1ccc(CO)cc1)c1cccc(Cc2cc(Cl)ccc2OCc2ccc(Cl)cc2F)n1 [Example 13, 6-[(5-Chloro-2-{[(4-chloro-2-fluorophenyl)methyl]oxy}phenyl)methyl]-N-[4-(hydroxymethyl)phenyl]-2-pyridinecarboxamide]
O=C(Nc1ccccc1)c1cccc(Cc2cc(Cl)ccc2OCc2ccccc2)n1 [Example 10, 6-({5-Chloro-2-[(phenylmethyl)oxy]phenyl}methyl)-N-phenyl-2-pyridinecarboxamide]
Clc1ccc(OCc2ccccc2)c(Cc2cccc(-c3nc4cnccc4[nH]3)n2)c1 [Example 38, 2-[6-({5-Chloro-2-[(phenylmethyl)oxy]phenyl}methyl)-2-pyridinyl]-1H-imidazo[4,5-c]pyridinehydrochloride]
